This assay deals with HPV42-E7, 3xMYC-tagged (human papillomavirus 42). As to the kind of experiment: co-IP; U2OS transfected with 3xMYC-tagged E7; 24 h 1 umol/L MG-132; lysate on anti-MYC agarose beads 2 h at 4 C; immunoblot. (In general: Immunoblotting shows a protein as a band on a membrane.)

No constants are given. Whether binding was seen depends on the method and setting. Binding seen in cells or lysates may run through a third protein. Binding calls can cover weak binding; strength is not graded here.

B1: pRB, endogenous in U2OS (protein, UniProt P06400 1-928)
chain: MPPKTPRKTAATAAAAAAEPPAPPPPPPPEEDPEQDSGPEDLPLVRLEFEETEEPDFTALCQKLKIPDHVRERAWLTWEKVSSVDGVLGGYIQKKKELWGICIFIAAVDLDEMSFTFTELQKNIEISVHKFFNLLKEIDTSTKVDNAMSRLLKKYDVLFALFSKLERTCELIYLTQPSSSISTEINSALVLKVSWITFLLAKGEVLQMEDDLVISFQLMLCVLDYFIKLSPPMLLKEPYKTAVIPINGSPRTPRRGQNRSARIAKQLENDTRIIEVLCKEHECNIDEVKNVYFKNFIPFMNSLGLVTSNGLPEVENLSKRYEEIYLKNKDLDARLFLDHDKTLQTDSIDSFETQRTPRKSNLDEEVNVIPPHTPVRTVMNTIQQLMMILNSASDQPSENLISYFNNCTVNPKESILKRVKDIGYIFKEKFAKAVGQGCVEIGSQRYKLGVRLYYRVMESMLKSEEERLSIQNFSKLLNDNIFHMSLLACALEVVMATYSRSTSQNLDSGTDLSFPWILNVLNLKAFDFYKVIESFIKAEGNLTREMIKHLERCEHRIMESLAWLSDSPLFDLIKQSKDREGPTDHLESACPLNLPLQNNHTAADMYLSPVRSPKKKGSTTRVNSTANAETQATSAFQTQKPLKSTSLSLFYKKVYRLAYLRLNTLCERLLSEHPELEHIIWTLFQHTLQNEYELMRDRHLDQIMMCSMYGICKVKNIDLKFKIIVTAYKDLPHAVQETFKRVLIKEEEYDSIIVFYNSVFMQRLKTNILQYASTRPPTLSPIPHIPRSPYKFPSSPLRIPGGNIYISPLKSPYKISEGLPTPTKMTPRSRILVSIGESFGTSEKFQKINQMVCNSDRVLKRSAEGSNPPKPLKKLRFDIEGSDEADGSKHLPGESKFQQKLAEMTSTRTRMQKQKMNDSMDTSNKEEK
Consider B1, for which the binding result is “binds”.

Source of the values: article PMC9827110.
